Measured values as given in paper PMC4650554.
No constants are given. Whether binding was seen depends on the method and setting. Binding seen in cells or lysates may run through a third protein. Some binding calls cover weakened binding; strength is not graded here.

Protein sequences, listed by entry. Tags and fused reporters are not part of them.
UniProt O88522: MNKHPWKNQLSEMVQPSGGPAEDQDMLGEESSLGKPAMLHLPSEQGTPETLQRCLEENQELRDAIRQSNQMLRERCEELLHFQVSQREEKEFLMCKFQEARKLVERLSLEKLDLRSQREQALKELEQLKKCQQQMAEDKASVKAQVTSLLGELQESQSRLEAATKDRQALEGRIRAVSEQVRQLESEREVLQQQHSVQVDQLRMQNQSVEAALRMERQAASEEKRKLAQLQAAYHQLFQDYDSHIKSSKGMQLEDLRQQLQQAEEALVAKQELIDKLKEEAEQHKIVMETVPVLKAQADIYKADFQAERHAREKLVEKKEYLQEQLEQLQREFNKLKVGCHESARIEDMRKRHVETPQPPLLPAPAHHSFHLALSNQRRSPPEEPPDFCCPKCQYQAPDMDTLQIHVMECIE

T1: Foxp3 (transfected in 293T cells) (UniProt Q99JB6)
T1 sequence: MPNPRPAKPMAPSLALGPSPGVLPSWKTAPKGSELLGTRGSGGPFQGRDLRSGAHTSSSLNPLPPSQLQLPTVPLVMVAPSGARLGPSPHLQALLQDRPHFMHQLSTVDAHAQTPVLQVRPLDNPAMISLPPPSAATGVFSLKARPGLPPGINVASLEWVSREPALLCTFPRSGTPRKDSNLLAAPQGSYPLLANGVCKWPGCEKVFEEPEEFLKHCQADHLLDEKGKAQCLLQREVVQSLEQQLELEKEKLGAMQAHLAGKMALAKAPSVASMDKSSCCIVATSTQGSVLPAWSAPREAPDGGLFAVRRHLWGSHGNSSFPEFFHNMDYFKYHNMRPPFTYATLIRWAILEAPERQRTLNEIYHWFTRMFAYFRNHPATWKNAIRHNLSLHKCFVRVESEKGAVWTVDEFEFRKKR

B1: Foxp3 (protein, UniProt Q99JB6 1-417)
chain: T1 sequence

Legend:
[1] = target: T1, Foxp3 (transfected in 293T cells); assay: co-IP; 293T cells transiently transfected with both Foxp3 and c-myc-tagged NEMO plasmids; cells with either plasmid alone as controls; two clones of anti-Foxp3 Ab (K-13, H190) used for IP; RIPA buffer
[2] = target: IKKγ/NEMO (mouse (endogenous in splenic CD4+ T cells)) (UniProt O88522); assay: co-IP; lysates (RIPA buffer) of primary splenic CD4+ T cells from WT and Sf mice; pulled down by anti-NEMO Ab, blotted with anti-NEMO or anti-Foxp3 Ab; total lysate of Foxp3+ Tregs as positive control

| Molecule | binding [1] | binding [2] |
| --- | --- | --- |
| NEMO (tagged with c-myc) (from UniProt O88522 1-412) | binds |  |
| B1 |  | binds |
